# Earlier results as cited in patent publication US10675331B2, “Method for achieving desired glial growth factor 2 plasma levels” (priority 2008, dated 2020).
# Where two headings read alike, the source gives them in different places. At least one compound was matched to its structure with a doubt left.
# Key:
# neuroprotection = details: mice; systemic administration; cited from earlier work
# [1] = tested on: fear conditioning and learning; details: rats; systemic administration; cited from earlier work
# hippocampal LTP = details: in vitro; cited from earlier work
# JNKI, 2 and 3 = details: competitive, reversible; cited from earlier work
# metastatic breast cancer = details: cited from earlier work
# [2] = first group named (continuous dosing)
# [3] = second group named (intermittent dosing)
compound,measurement,setting,value
N#C/C(=C(/N)Sc1ccc(N)cc1)c1ccccc1C(F)(F)F [SL 327],neuroprotection,neuroprotection,producing neuroprotection
same,effect on fear conditioning and learning,[1],blocking fear conditioning and learning
same,effect on hippocampal LTP,hippocampal LTP,blocks hippocampal LTP
Oc1c2ccccc2c2c3c(cccc13)N=N2 [SP600125],IC50,"JNKI, 2 and 3",40 to 90 nM
"Cn1cncc1[C@@](N)(c1ccc(Cl)cc1)c1ccc2c(c1)c(-c1cccc(Cl)c1)cc(=O)n2C [Zarnestra, tipifarnib]",objective response rate,metastatic breast cancer; [2],10%
same,stable disease for at least 6 months,metastatic breast cancer; [2],15%
same,objective response rate,metastatic breast cancer; [3],14%
same,stable disease for at least 6 months,metastatic breast cancer; [3],9%
